Results published in patent EP1914237B1 (priority 1999, dated 2001).
Which two values form the index is not stated here.

Test system: HCMV

Row | Structure (SMILES) | Selectivity Index
1 | CCCCCCCCCCCCCCCCCCOCCOP1(=O)COC(Cn2ccc(N)nc2=O)CO1 (stereo not shown) [1-O-octadecylethanediol-2-cCDV] | 1 x 10^6
2 | CCCCCCCCCCCCCCCCCCOCCCOP(=O)(O)CO[C@H](CO)Cn1ccc(N)nc1=O [1-O-octadecylpropanediol-3-CDV] | 1 x 10^6
3 | CCCCCCCCCCCCCCCCCCOCCCOP1(=O)COC(Cn2ccc(N)nc2=O)CO1 (stereo not shown) [1-O-octadecylpropanediol-3-cCDV] | 1 x 10^6
4 | CCCCCCCCCCCCCCCCOP1(=O)COC(Cn2ccc(N)nc2=O)CO1 (stereo not shown) [Hexadecyl-cCDV] | 163
